Results reported in patent US9150553B2, “Carboxamide compounds and their use as calpain inhibitors” (AbbVie Deutschland GmbH & Co. KG, priority 2007, dated 2015).
Some results were stated once for a whole list of compounds, not compound by compound.

assay: Stability in aqueous acidic environment (pH 1, dioxane/water, 37° C., HPLC MSD); assay type: physicochemical; settings: one week at 37° C.

Row | SMILES | formation of the corresponding compound of the formula II (stability)
1 | NC(=O)C1(C(Cc2ccc(F)cc2)NC(=O)c2cccnc2-n2ccc(-c3ccc(Cl)cc3Cl)n2)OCCO1 (stereo not drawn) [Compound I-1, N-[1-[2-(Aminocarbonyl)-1,3-dioxolan-2-yl]-2-(4-fluorophenyl)ethyl]-2-[3-(2,4-dichlorophenyl)-1H-pyrazol-1-yl]nicotinamide] | no major formation of the corresponding compound of the formula II could be observed
2 | NC(=O)C1(C(Cc2ccccc2)NC(=O)c2cccnc2-n2ccc(-c3ccc(F)cc3)n2)OCCO1 (stereo not drawn) [Compound I-3, N-{1-[2-(Aminocarbonyl)-1,3-dioxolan-2-yl]-2-phenylethyl}-2-[3-(4-fluorophenyl)-1H-pyrazol-1-yl]nicotinamide] | no major formation of the corresponding compound of the formula II could be observed
3 | NC(=O)C1(C(Cc2ccccc2)NC(=O)c2cccnc2-n2ccc(-c3cccc(C(F)(F)F)c3)n2)OCCO1 (stereo not drawn) [Compound I-2, N-{1-[2-(Aminocarbonyl)-1,3-dioxolan-2-yl]-2-phenylethyl}-2-{3-[3-(trifluoromethyl)phenyl]-1H-pyrazol-1-yl}nicotinamide] | no major formation of the corresponding compound of the formula II could be observed
